Source: patent US20180344870A1
No constants are given. Whether binding was seen depends on the method and setting. Some binding calls cover weakened binding; strength is not graded here.

Protein sequences, listed by entry. Tags and fused reporters are not part of them. Lines headed by an entry give the natural chain unless they say otherwise; changes in a name come on top. Residues count along the entry.
UniProt Q07011: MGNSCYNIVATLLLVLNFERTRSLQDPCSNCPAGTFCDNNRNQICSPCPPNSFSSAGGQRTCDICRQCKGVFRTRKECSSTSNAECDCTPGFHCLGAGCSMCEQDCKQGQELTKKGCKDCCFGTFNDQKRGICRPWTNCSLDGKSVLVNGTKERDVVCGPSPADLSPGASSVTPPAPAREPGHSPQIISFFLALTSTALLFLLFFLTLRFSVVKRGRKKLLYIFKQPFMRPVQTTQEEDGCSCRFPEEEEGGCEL
UniProt P41273, residues 71-254: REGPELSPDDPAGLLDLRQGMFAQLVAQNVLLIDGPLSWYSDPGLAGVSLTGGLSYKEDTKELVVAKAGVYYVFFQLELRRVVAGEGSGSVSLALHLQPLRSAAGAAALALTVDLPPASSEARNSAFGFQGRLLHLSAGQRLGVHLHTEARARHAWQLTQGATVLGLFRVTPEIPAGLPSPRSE

Legend:
[1] = molecular target: human CD137 (Acro Biosystem, 41B-H5227) (human) (UniProt Q07011); assay: SPR, CD137L over CD137/BA001-F(ab′)2 complex (FIGS. 2A and 2B)
[2] = molecular target: human CD137 (Acro Biosystem, 41B-H5227) (human) (UniProt Q07011); assay: SPR (BIAcore T200), 200 nM CD137L over CD137 held by captured BA001-F(ab′)2
[3] = molecular target: human CD137 (Acro Biosystem, 41B-H5227) (human) (UniProt Q07011); assay: SPR (BIAcore T200), 60 nM CD137L over captured preformed CD137/BA001-F(ab′)2 complex

Measured: binding

Recombinant Human 4-1BB Ligand/TNFSF9 (His-tag), R&D Systems 2295-4L-025 (from UniProt P41273 71-254)
binds: all assays above
